# Some of the results follow.
# System: T1, CTL2-GFP (C. trachomatis L2/434/Bu, GFP-expressing)
# T1 construct: L2/434/Bu, GFP-expressing
# Set-up: species or system HeLa; Intracellular C. trachomatis growth in HeLa cells, bulk GFP fluorescence relative to DMSO
# Conditions: bulk GFP, single well; 28.5 h, 10 µM; inhibitor
row,Structure (SMILES),% of control remaining
1,CC(=O)NC1(c2ccccc2)CCN(Cc2ccnn2C)CC1 [CBK281805],128.388%
2,O=C(O)c1ccc(NC(=O)c2ccccc2F)c(NC(=O)c2ccccc2F)c1 [CBK275363],120.457%
3,CCc1nc2ccc(C(=O)Nc3ccc(C(N)=O)cc3)cn2c1N(CC)Cc1cccc(Br)c1 [CBK146960],122.071%
4,O=[N+]([O-])c1ccccc1S(=O)(=O)N1CCN(S(=O)(=O)c2ccc(Cl)cc2)CC1 [CBK264311],100%
5,CCOc1cc(NC2CCN(C(=O)C(C)CC3CCCC3)CC2)ncn1 (centres unmarked) [CBK306176],91.4522%
6,Cn1cc(C(=O)NC2CCN(C(=O)c3ccc4c(c3)CCC4)CC2)cn1 [CBK305664],98.9875%
7,CCOc1ccc(CC(=O)N2CCC(c3ccncc3)CC2)cc1 [CBK283596],122.507%
8,CC(C)(C)n1cc2c(n1)[C@H]1CN(C(=O)CN3CCCC3=O)C[C@H]1CC2 [CBK283401],128.288%
9,Cc1cc(N2CCCN3CCCCCC32)nc(N)n1 (centres unmarked) [CBK169746],120.33%
10,CCOC(=O)c1c(NC(=O)CN2CCOCC2)sc2c1CCC2 [CBK262548],112.405%
11,CCOc1nc(Nc2nc(-c3ccccc3)cs2)nc(OCC)n1 [CBK262442],133.26%
12,CCOC(=O)c1c(C(C)(C)C)oc2ccc(OCC(=O)c3ccc(OC)cc3)cc12 [CBK264950],115.611%
13,COc1ncccc1C(=O)N1Cc2ccccc2C1 [CBK200324],87.9684%
14,OCc1cccc(-c2cncc(NCCc3cccnc3)n2)c1 [CBK037946],190.774%
15,CC(C)c1cccc(C(C)C)c1OCCNCCO [CBK262750],100%
16,Cc1sc2ncn(CCC(=O)O)c(=O)c2c1C [CBK288191],91.2031%
17,CCN1CCCC1CN(Cc1cccs1)CC1CCOC1 (centres unmarked) [CBK282602],90.7593%
18,O=C(c1ccccc1)N1CCC(c2cccc(Cc3ccccc3Cl)n2)CC1 [CBK286085],99.8921%
19,CCCN(C(=O)OC(C)(C)C)C1CCc2[nH]c(=O)c(C#N)cc2C1 (centres unmarked) [CBK023470],126.378%
20,Cc1nonc1CC(=O)N1CCC[C@@H]2[C@H]1C/C=C/Cc1ccccc1OCC(=O)N2C [CBK292062],149.369%
21,COc1ccc(C(C)N(CCN2CCOCC2)C(=O)NCc2cccnc2)cc1OC (centres unmarked) [CBK158986],90.9206%
22,Cc1ccc(C(F)(F)F)cc1NS(=O)(=O)c1cc(OC2CCNCC2)c2occc2c1 [CBK082763C],140.963%
23,COCCNc1cc(-c2cccc3oc4ccccc4c23)ncn1 [CBK090794],228.467%
24,COC(=O)[C@@H]1CN(C(=O)c2cccs2)CCN1C(=O)c1cccnc1 [CBK289610],119.75%
25,CC(Sc1nnc(-c2ccc(Cl)cc2)n1CC(=O)O)C(=O)Nc1ccnn1C(C)C (centres unmarked) [CBK296970],170.444%

row,Structure (SMILES),% of control remaining
1,Cc1nc(CN2CCN(C(=O)NCCc3cnn(C)c3)CC2)cs1 [CBK305614],144.663%
2,CC(C)CNC(=O)c1cccc(NC(=O)N2CCC2c2cccs2)c1 (centres unmarked) [CBK306927],73.5403%
3,CC(=O)OC(c1ccccc1)c1nc2ccccc2[nH]1 (centres unmarked) [CBK110141],83.1319%
4,CC(=O)C(/N=N\c1ccc(S(=O)(=O)Nc2nccs2)cc1)C(=O)Nc1ccc(Cl)cc1 (centres unmarked) [CBK015826],134.824%
5,Cc1ccc(NC(=O)/C=C/c2ccc3c(c2)OCO3)c(NC(=O)/C=C/c2ccc3c(c2)OCO3)c1 [CBK265423],102.657%
6,Cc1cc(CC(=O)N2CCN(C(=O)c3ccco3)CC2)on1 [CBK144465],128.405%
7,O=C(CO)N1CC2(CCN(CCO)CC2)c2ccccc21 [CBK131507],124.523%
8,CCNC(=O)N[C@H]1CO[C@H]2[C@@H]1OC[C@@H]2n1nnnc1Oc1ccccc1 [CBK289484],111.138%
9,Cc1ccc(-n2c(SCC(=O)N3CCc4ccccc43)nnc2-c2ccccc2O)c(C)c1 [CBK268793],163.487%
10,CC(C)(C)c1nnc(NC(=O)c2ccc(F)cc2)s1 [CBK086855],120.986%
11,COc1ccc(NC2c3cccc4cccc(c34)C2NS(=O)(=O)c2ccccc2)cc1 (centres unmarked) [CBK264075],87.3275%
12,Fc1ccc(CN2CCC(c3nnc4n3CCCCC4)CC2)cc1F [CBK283356],123.673%
13,N#CC(c1ccc(O)cc1)N1CCOCC1 (centres unmarked) [CBK261659],100.647%
14,Cc1noc(NS(=O)(=O)c2ccc(NC(=O)COc3ccccc3Br)cc2)c1C [CBK263918],32.4015%
15,CS(=O)(=O)Nc1nccnc1N1CCN(c2ccccc2)CC1 [CBK048688],124.383%
16,COc1cncc(C(NC(=O)c2cc(=O)cc(C)o2)[C@H]2C[C@@H](O)C2)c1 (some centres unmarked) [CBK306833],133.458%
17,CCCN(C(C)=O)c1nc(O)cc(C(F)(F)F)n1 [CBK000427],101.55%
18,COc1cccc(N2C(=O)N[C@@H]3CCN(C(=O)c4cccs4)[C@@H]3C2=O)c1 [CBK289279],124.28%
19,CCOCC1CN(c2cc(CO)c(F)cn2)CCO1 (centres unmarked) [CBK304756],134.645%
20,CN1CCC(C(=O)N2CCN(CCc3ccccc3)CC2)CC1 [CBK200216],129.502%
21,Cc1ccc(NC2CC(C)N(C(=O)c3cccc([N+](=O)[O-])c3)c3ccc(C)cc32)cc1 (centres unmarked) [CBK293929],127.042%
22,CCOc1ccc(S(=O)(=O)Nc2ccc(C(=O)O)c(O)c2)cc1 [CBK299837],155.785%
23,C(=C\c1nccnc1OCc1ccccn1)/c1ccccc1 [CBK106874],97.3976%
24,FC(F)(F)c1cc(-c2cn3ccnc3c(Nc3ccc4[nH]ccc4c3)n2)cc(C(F)(F)F)c1 [CBK066356],111.842%
25,Cc1c(NC(=O)Nc2ccccc2)sc(=S)n1C [CBK027434],107.526%

# Source: paper PMC12040169 (PLOS Biology, 2025)
